In all, about 33,000 sequences were measured (“E-score (-0.5 to 0.5)”: median about -8e-05, highest 2% from about 0.23 on). The list shows a part of the results.
target: T1, Nrg2 (UniProt P38082); experiment: PBM E-score (8-mer binding enrichment) (E-score (-0.5 to 0.5)); higher = stronger / more preferred TF binding; settings: protein concentration: 100 nM; construct: GST-full length
T1 sequence: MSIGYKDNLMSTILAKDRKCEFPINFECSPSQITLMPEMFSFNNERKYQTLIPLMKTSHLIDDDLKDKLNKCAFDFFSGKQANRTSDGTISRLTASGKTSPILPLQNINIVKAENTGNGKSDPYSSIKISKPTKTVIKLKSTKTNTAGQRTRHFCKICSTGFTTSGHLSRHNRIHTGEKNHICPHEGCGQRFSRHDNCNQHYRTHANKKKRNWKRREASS
In short: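 Universal all-10-mer Agilent arrays, fresh or stripped once, were converted to double-stranded form by primer extension. GST-tagged yeast transcription factors from PURExpress in vitro transcription/translation, full-length or DNA-binding domain only, were applied at about 100-200 nM and detected with fluorescent anti-GST. After masliner normalisation, the Universal PBM Analysis Suite scored each ungapped eight-base word together with its reverse complement by E-score.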

Row | Sequence | PBM E-score
1 | CTCCTCAA | -0.246
2 | AATTATTA | 0.0775
3 | CTCCCCAA | -0.0319
4 | AGTTGCCG | 0.0108
5 | CCGTTCAG | 0.00062
6 | CTTAGGCC | -0.0245
7 | ATCTAAAG | -0.0106
8 | ACGTCTAA | 0.0439
9 | CCTTTTCG | -0.0149
10 | CGCAACAC | 0.141
11 | GCGCAACC | 0.209
12 | AATCAAAA | 0.0808
13 | CCGCGCAC | 0.019
14 | GAGGCAGA | -0.0869
15 | ACGTAGTC | -0.264
16 | CAATTAAC | 0.145
17 | CCCGCCGG | -0.0661
18 | ACGCAGCC | 0.0811
19 | AAAAGCCG | -0.0633
20 | AAATTAGT | 0.166
21 | CCAGTGCC | -0.0983
22 | ATTTTGCA | 0.0542
23 | AGCCGTAT | -0.0933
24 | GACCGGCC | -0.202
25 | CCTATAAA | -0.313

Row | Sequence | PBM E-score
26 | CGGGAAAA | 0.0363
27 | GCCGGCGA | -0.0379
28 | GACAACAA | 0.144
29 | AGCGGAAG | -0.00932
30 | AGTGAAGA | -0.00183
31 | GAGTGCAC | -0.00313
32 | AATTTTCC | 0.2
33 | AGAGATAT | 0.0597
34 | GGGAGCCC | -0.25
35 | AGCCATGA | 0.0805
36 | AACATTTA | 0.0236
37 | CAGATTAG | -0.0964
38 | TAACTTCA | 0.0665
39 | CTGTTGTA | 0.086
40 | AAAGAACA | 0.038
41 | GATTGGGA | -0.112
42 | CTCATACC | 0.0526
43 | GATGTCGC | 0.00641
44 | CTGGTGGC | 0.00474
45 | CGCTAGTA | 0.0319
46 | ACTTCTTG | 0.0237
47 | GCTTCACA | -0.0463
48 | AATCTCAG | -0.0894
49 | GCGAGCAC | 0.0453
50 | GCTCAAAC | 0.0315

Row | Sequence | PBM E-score
51 | AGTCGCAT | 0.00245
52 | ATTATGAA | 0.155
53 | CGTTTTCA | 0.124
54 | GTGTTCGA | 0.202
55 | AAACGTCC | -0.0517
56 | ATAAAATA | 0.161
57 | CCGCCCCG | 0.309
58 | ACGATGCG | -0.167
59 | AAGTAGAT | 0.108
60 | CGCTCACG | 0.0462
61 | ACGTGAAT | 0.00639
62 | ACTGCCTG | -0.105
63 | AACGTACG | -0.038
64 | GCGGCTAC | 0.0658
65 | CGTCTACC | -0.0946
66 | GTTCCGCA | 0.152
67 | AGGTGGAC | -0.143
68 | GAACGGTA | -0.0259
69 | ATCTTGAC | 0.0304
70 | AATTGGCA | -0.0168
71 | AGGGGTTC | 0.169
72 | CCAGTACA | 0.0288
73 | CGTGAATC | -0.112
74 | GGTCCAGA | 0.125
75 | CACGCTGA | -0.0997

Row | Sequence | PBM E-score
76 | CAGCGCAG | -0.0797
77 | AAGACTCG | -0.0824
78 | CAAGACCC | 0.0254
79 | CCGCGGCG | 0.0423
80 | CCAGTGAA | -0.23
81 | GACGCCTA | 0.0134
82 | CTGATCGA | -0.214
83 | AATACAGC | 0.13
84 | CAAAAGCC | -0.021
85 | CGATTGTC | -0.00587
86 | TCCCCAAA | 0.113
87 | AGGTCGTG | -0.0806
88 | GAAGGTAC | -0.0911
89 | ACTTCATC | 0.0308
90 | AGGCCACA | -0.149
91 | GTGGCCCA | -0.0223
92 | AGGTAATA | 0.14
93 | ATCCCTCG | 0.0848
94 | CCTCACAG | 0.0646
95 | GTTTGGTA | 0.197
96 | AGTTCACC | 0.105
97 | GAGGCCAC | -0.0494
98 | CGTGATAA | -0.0171
99 | ATTCTTCG | 0.054
100 | AAAGCCTT | -0.174

Exported in markdown: entries from further up

| Row | Sequence | PBM E-score |
| --- | --- | --- |
| 61 | ACGTGAAT | 0.00639 |
| 62 | ACTGCCTG | -0.105 |
| 63 | AACGTACG | -0.038 |
| 64 | GCGGCTAC | 0.0658 |
| 65 | CGTCTACC | -0.0946 |
| 66 | GTTCCGCA | 0.152 |

The list continues:

Row | Sequence | PBM E-score
101 | CTGCATAA | 0.102
102 | CAATGATA | 0.128
103 | ATTCGATG | -0.00387
104 | ATCGCTCA | 0.0717
105 | ACAGCCCA | -0.221
106 | ATTTGAGC | -0.0085
107 | CATAGGTA | -0.0194
108 | ATGACATA | 0.161
109 | CCGACCGG | -0.137
110 | CGATGCAA | -0.0143
111 | AGTGTGCA | 0.134
112 | ACGTTGAT | 0.0819
113 | CTGGCGGC | -0.0616
114 | CAAGACGA | -0.0054
115 | GTAGCGTA | 0.012
116 | TCAATGGA | -0.029
117 | GAGAACCC | 0.0255
118 | GGTCGTGA | -0.184
119 | ATACTTTG | 0.138
120 | AATTATCT | 0.205
121 | AGATGCAG | 0.0787
122 | CTCTTATA | 0.0901
123 | CAGTGCAC | -0.0259
124 | GACCCCAC | 0.142
125 | AAAAACAC | 0.0766

Row | Sequence | PBM E-score
126 | ACCTGACC | -0.197
127 | AAATTGTG | -0.0563
128 | AAGGCTGA | -0.081
129 | AAGAACAC | 0.0704
130 | AGCACAAC | 0.0937
131 | ACCGAACT | -0.146
132 | CTGGTTTC | 0.146
133 | CTGTCAAA | -0.0866
134 | ATAGGCAT | -0.0379
135 | ACTACTAT | 0.27
136 | GTCACACA | -0.0792
137 | GATGGCGC | -0.034
138 | CGTGGATC | 0.0135
139 | ACGTAAGA | -0.069
140 | GACTCGAA | -0.181
141 | TAATTCAA | 0.152
142 | ATCGGGCC | -0.2
143 | CTGTCGCC | 0.0267
144 | GCGAGTCC | -0.0555
145 | CTTGAGCC | -0.0733
146 | AATCAACA | 0.239
147 | CGCCTGGA | 0.042
148 | GAGCTCTA | 0.106
149 | ACATCTAG | 0.113
150 | ATCAACAC | 0.105

Row | Sequence | PBM E-score
151 | CTTCATAC | 0.112
152 | CTGAAAGA | -0.0879
153 | CCGTGCGA | 0.127
154 | TCTAGACA | 0.0482
155 | AAGCAGAC | -0.00611
156 | AGTGGAAA | -0.0137
157 | CGAGACCG | -0.0751
158 | GGCAATAC | 0.176
159 | GCCTTCGA | -0.174
160 | CCATCCCG | -0.133
161 | AAAAGATA | 0.0533
162 | CTTATCCA | -0.0715
163 | ACCATGGC | 0.088
164 | GATTTGCA | 0.15
165 | AACCGATA | 0.172
166 | TATCTCAA | 0.267
167 | AACTCCTG | -0.136
168 | AATGGCGA | 0.18
169 | ACACCGTG | -0.138
170 | CCGGTTGC | 0.0222
171 | GTGCTTTA | 0.00519
172 | CCTTTGCC | -0.196

Reference: the supplement of paper PMC3334620
